Data taken from patent US20130045962A1, “PEPTIDE DEFORMYLASE INHIBITORS” (priority 2007, published 2013).
Some results were stated once for a whole list of compounds, not compound by compound. At least one structure is not confirmed: it was looked up by name or label, or the drawing left a doubt.

Sequences of proteins named here, by UniProt entry; tags and fusion partners are left off. A change or cut given only in a name is not applied to a line headed by its entry.
UniProt P44786: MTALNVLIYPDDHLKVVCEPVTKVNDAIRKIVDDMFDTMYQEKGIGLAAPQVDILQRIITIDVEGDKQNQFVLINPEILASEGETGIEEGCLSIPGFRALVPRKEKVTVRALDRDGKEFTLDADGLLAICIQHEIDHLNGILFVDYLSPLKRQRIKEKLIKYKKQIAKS

Target: Haemophilus influenzae PDF (Haemophilus influenzae, UniProt P44786)
Test: PDF IC50 assay (FDH-coupled), H. influenzae PDF
Assay type: biochemical
Details: read-out: IC50, inhibition of H. influenzae PDF activity

SMILES | IC50 [nM]
CCc1nc(NNC(=O)[C@H](CC2CCCC2)CN(O)C=O)c(F)c(N2C[C@@H](C)[C@@H](N(C)C)C2)n1 (single isomer, unassigned) [Example 120] | ≤ 100
C[C@@H]1CN(c2nc(Cl)nc(NNC(=O)[C@H](CC3CCCC3)CN(O)C=O)c2F)C[C@@H]1N(C)C (single isomer, unassigned) [Example 122] | ≤ 100
O=CN(O)C[C@@H](CC1CCCC1)C(=O)NNc1nc(Cl)nc(N2CCN3CCCCC3C2)c1F (single isomer, unassigned) [Example 123] | ≤ 100
C[C@@H]1CN(c2nc(Cl)nc(NNC(=O)[C@H](CC3CCCC3)CN(O)C=O)c2F)[C@@H](C)CN1C (single isomer, unassigned) [Example 155] | ≤ 100
Cc1nc(NNC(=O)[C@H](CC2CCCC2)CN(O)C=O)c(F)c(N2C[C@@H](C)N(C)C[C@@H]2C)n1 (single isomer, unassigned) [Example 162] | ≤ 100
CN(C)C1CN(c2nc(Cl)nc(NNC(=O)[C@H](CC3CCCC3)CN(O)C=O)c2F)C(C)(C)C1 (single isomer, unassigned) [Example 195] | ≤ 100
Cc1nc(NNC(=O)[C@H](CC2CCCC2)CN(O)C=O)c(F)c(N2CCCC2)n1 [Example 1, ((2R)-2-(Cyclopentylmethyl)-3-{2-[5-fluoro-2-methyl-6-(1-pyrrolidinyl)-4-pyrimidinyl]hydrazino}-3-oxopropyl)hydroxyformamide] | ≤ 100
CCc1nc(NNC(=O)[C@H](CC2CCCC2)CN(O)C=O)c(F)c(N2CCC2)n1 [Example 2, [(2R)-3-{2-[6-(1-Azetidinyl)-2-ethyl-5-fluoro-4-pyrimidinyl]hydrazino}-2-(cyclopentylmethyl)-3-oxopropyl]hydroxyformamide] | ≤ 100
CSc1nc(NNC(=O)[C@H](CC2CCCC2)CN(O)C=O)c(F)c(N2CCC2)n1 [Example 3, [(2R)-3-{2-[6-(1-Azetidinyl)-5-fluoro-2-(methylthio)-4-pyrimidinyl]hydrazino}-2-(cyclopentylmethyl)-3-oxopropyl]hydroxyformamide] | ≤ 100
CN1CCN(c2nc(Cl)nc(NNC(=O)[C@H](CC3CCCC3)CN(O)C=O)c2F)CC1 [Example 4, [(2R)-3-{2-[2-Chloro-5-fluoro-6-(4-methyl-1-piperazinyl)-4-pyrimidinyl]hydrazino}-2-(cyclopentylmethyl)-3-oxopropyl]hydroxyformamide] | ≤ 100
CC(C)Nc1nc(Cl)nc(NNC(=O)[C@H](CC2CCCC2)CN(O)C=O)c1F [Example 5, [(2R)-3-(2-{2-Chloro-5-fluoro-6-[(1-methylethyl)amino]-4-pyrimidinyl}hydrazino)-2-(cyclopentylmethyl)-3-oxopropyl]hydroxyformamide] | ≤ 100
Cc1nc(NNC(=O)[C@H](CC2CCCC2)CN(O)C=O)c(F)c(N2CC=CC2)n1 [Example 6, ((2R)-2-(Cyclopentylmethyl)-3-{2-[6-(2,5-dihydro-1H-pyrrol-1-yl)-5-fluoro-2-methyl-4-pyrimidinyl]hydrazino}-3-oxopropyl)hydroxyformamide] | ≤ 100
CN1C[C@@H]2C[C@H]1CN2c1nc(Cl)nc(NNC(=O)[C@H](CC2CCCC2)CN(O)C=O)c1F [Example 7, [(2R)-3-(2-{2-Chloro-5-fluoro-6-[(1S,4S)-5-methyl-2,5-diazabicyclo[2.2.1]hept-2-yl]-4-pyrimidinyl}hydrazino)-2-(cyclopentylmethyl)-3-oxopropyl]hydroxyformamide] | ≤ 100
CN1CCN(c2nc(C(F)F)nc(NNC(=O)[C@H](CC3CCCC3)CN(O)C=O)c2F)CC1 [Example 8, ((2R)-2-(Cyclopentylmethyl)-3-{2-[2-(difluoromethyl)-5-fluoro-6-(4-methyl-1-piperazinyl)-4-pyrimidinyl]hydrazino}-3-oxopropyl)hydroxyformamide] | ≤ 100
Cc1nc(NNC(=O)[C@H](CC2CCCC2)CN(O)C=O)c(F)c(N2CCC2)n1 [Example 9, [(2R)-3-{2-[6-(1-Azetidinyl)-5-fluoro-2-methyl-4-pyrimidinyl]hydrazino}-2-(cyclopentylmethyl)-3-oxopropyl]hydroxyformamide] | ≤ 100
Cc1nc(NNC(=O)[C@H](CC2CCCC2)CN(O)C=O)c(F)c(N2CCOCC2)n1 [Example 10, ((2R)-2-(Cyclopentylmethyl)-3-{2-[5-fluoro-2-methyl-6-(4-morpholinyl)-4-pyrimidinyl]hydrazino}-3-oxopropyl)hydroxyformamide] | ≤ 100
CON(C)c1nc(C)nc(NNC(=O)[C@H](CC2CCCC2)CN(O)C=O)c1F [Example 11, [(2R)-2-(Cyclopentylmethyl)-3-(2-{5-fluoro-2-methyl-6-[methyl(methyloxy)amino]-4-pyrimidinyl}hydrazino)-3-oxopropyl]hydroxyformamide] | ≤ 100

SMILES | IC50 [nM]
Cc1nc(NNC(=O)[C@H](CC2CCCC2)CN(O)C=O)c(F)c(N2CCSC2)n1 [Example 12, ((2R)-2-(Cyclopentylmethyl)-3-{2-[5-fluoro-2-methyl-6-(1,3-thiazolidin-3-yl)-4-pyrimidinyl]hydrazino}-3-oxopropyl)hydroxyformamide] | ≤ 100
COC1CN(c2nc(C)nc(NNC(=O)[C@H](CC3CCCC3)CN(O)C=O)c2F)C1 [Example 13, [(2R)-2-(Cyclopentylmethyl)-3-(2-{5-fluoro-2-methyl-6-[3-(methyloxy)-1-azetidinyl]-4-pyrimidinyl}hydrazino)-3-oxopropyl]hydroxyformamide] | ≤ 100
CO[C@@H]1CCN(c2nc(C)nc(NNC(=O)[C@H](CC3CCCC3)CN(O)C=O)c2F)C1 [Example 14, [(2R)-2-(Cyclopentylmethyl)-3-(2-{5-fluoro-2-methyl-6-[(3R)-3-(methyloxy)-1-pyrrolidinyl]-4-pyrimidinyl}hydrazino)-3-oxopropyl]hydroxyformamide] | ≤ 100
CO[C@H]1CCN(c2nc(C)nc(NNC(=O)[C@H](CC3CCCC3)CN(O)C=O)c2F)C1 [Example 15, [(2R)-2-(Cyclopentylmethyl)-3-(2-{5-fluoro-2-methyl-6-[(3S)-3-(methyloxy)-1-pyrrolidinyl]-4-pyrimidinyl}hydrazino)-3-oxopropyl]hydroxyformamide] | ≤ 100
Cc1nc(NNC(=O)[C@H](CC2CCCC2)CN(O)C=O)c(F)c(NC(C)C)n1 [Example 16, [(2R)-2-(Cyclopentylmethyl)-3-(2-{5-fluoro-2-methyl-6-[(1-methylethyl)amino]-4-pyrimidinyl}hydrazino)-3-oxopropyl]hydroxyformamide] | ≤ 100
COCCN(C)c1nc(C)nc(NNC(=O)[C@H](CC2CCCC2)CN(O)C=O)c1F [Example 17, {(2R)-2-(Cyclopentylmethyl)-3-[2-(5-fluoro-2-methyl-6-{methyl[2-(methyloxy)ethyl]amino}-4-pyrimidinyl)hydrazino]-3-oxopropyl}hydroxyformamide] | ≤ 100
CCN(C)c1nc(C)nc(NNC(=O)[C@H](CC2CCCC2)CN(O)C=O)c1F [Example 18, [(2R)-2-(Cyclopentylmethyl)-3-(2-{6-[ethyl(methyl)amino]-5-fluoro-2-methyl-4-pyrimidinyl}hydrazino)-3-oxopropyl]hydroxyformamide] | ≤ 100
Cc1nc(NNC(=O)[C@H](CC2CCCC2)CN(O)C=O)c(F)c(N2CCC[C@H]2CO)n1 [Example 19, [(2R)-2-(Cyclopentylmethyl)-3-(2-{5-fluoro-6-[(2S)-2-(hydroxymethyl)-1-pyrrolidinyl]-2-methyl-4-pyrimidinyl}hydrazino)-3-oxopropyl]hydroxyformamide] | ≤ 100
Cc1nc(NNC(=O)[C@H](CC2CCCC2)CN(O)C=O)c(F)c(NC2CCC2)n1 [Example 20, [(2R)-3-{2-[6-(Cyclobutylamino)-5-fluoro-2-methyl-4-pyrimidinyl]hydrazino}-2-(cyclopentylmethyl)-3-oxopropyl]hydroxyformamide] | ≤ 100
Cc1nc(NNC(=O)[C@H](CC2CCCC2)CN(O)C=O)c(F)c(NC2CCCC2)n1 [Example 21, [(2R)-3-{2-[6-(Cyclopentylamino)-5-fluoro-2-methyl-4-pyrimidinyl]hydrazino}-2-(cyclopentylmethyl)-3-oxopropyl]hydroxyformamide] | ≤ 100
Cc1nc(NNC(=O)[C@H](CC2CCCC2)CN(O)C=O)c(F)c(N2CC[C@@H](CO)C2)n1 [Example 22, [(2R)-2-(Cyclopentylmethyl)-3-(2-{5-fluoro-6-[(3R)-3-(hydroxymethyl)-1-pyrrolidinyl]-2-methyl-4-pyrimidinyl}hydrazino)-3-oxopropyl]hydroxyformamide] | ≤ 100
Cc1nc(NNC(=O)[C@H](CC2CCCC2)CN(O)C=O)c(F)c(N2CC[C@H](CO)C2)n1 [Example 23, [(2R)-2-(Cyclopentylmethyl)-3-(2-{5-fluoro-6-[(3S)-3-(hydroxymethyl)-1-pyrrolidinyl]-2-methyl-4-pyrimidinyl}hydrazino)-3-oxopropyl]hydroxyformamide] | ≤ 100
Cc1nc(NNC(=O)[C@H](CC2CCCC2)CN(O)C=O)c(F)c(N2CCN3CCOC[C@@H]3C2)n1 [Example 24, [(2R)-2-(Cyclopentylmethyl)-3-(2-{5-fluoro-6-[(9aS)-hexahydropyrazino[2,1-c][1,4]oxazin-8(1H)-yl]-2-methyl-4-pyrimidinyl}hydrazino)-3-oxopropyl]hydroxyformamide] | ≤ 100
CCc1nc(NNC(=O)[C@H](CC2CCCC2)CN(O)C=O)c(F)c(N2CCN(C)CC2)n1 [Example 25, ((2R)-2-(Cyclopentylmethyl)-3-{2-[2-ethyl-5-fluoro-6-(4-methyl-1-piperazinyl)-4-pyrimidinyl]hydrazino}-3-oxopropyl)hydroxyformamide] | ≤ 100
CCc1nc(NNC(=O)[C@H](CC2CCCC2)CN(O)C=O)c(F)c(N2CCCO2)n1 [Example 26, N-[(2R)-2-(Cyclopentylmethyl)-3-{2-[2-ethyl-5-fluoro-6-(2-isoxazolidinyl)-4-pyrimidinyl]hydrazino}-3-oxopropyl]-N-hydroxyformamide] | ≤ 100
CCc1nc(NNC(=O)[C@H](CC2CCCC2)CN(O)C=O)c(F)c(N2CC[C@@H](N(C)C)C2)n1 [Example 27, N-[(2R)-2-(Cyclopentylmethyl)-3-(2-{6-[(3R)-3-(dimethylamino)-1-pyrrolidinyl]-2-ethyl-5-fluoro-4-pyrimidinyl}hydrazino)-3-oxopropyl]-N-hydroxyformamide] | ≤ 100
